# Laboratory results reported in article PMC12431657, “Discovery and mechanistic insights of dibenzoylmethane as a broad spectrum inhibitor of coronavirus” (PLOS Pathogens, 2025).
# Counter-ions that a name gives are not always drawn. Like-named read-outs stand apart in the source and are kept apart here. In all, about 3,300 compounds went through this assay and about 95 (3%) showed an effect of 50% or more. The list shows a part of the results.
# System: HCoV-229E
# Design: species or system Huh-7; HTS, protection from HCoV-229E induced cell death, luminescent cell viability (CellCounting-Lite 2.0), inhibition rate
# Details: 24 h post infection, 1 h compound pre-incubation, 10 µM, inhibitor
structure (smiles),measurement,setting,value
C=CC1CNC(=S)O1 (racemic) [DL-Goitrin],229E Inhibition rate,,5.7%
C[C@]1(Cn2ccnn2)[C@H](C(=O)O)N2C(=O)C[C@H]2S1(=O)=O [Tazobactam],229E Inhibition rate,,3.6%
CC[C@@H](CO)NCCN[C@@H](CC)CO [Ethambutol (dihydrochloride)],229E Inhibition rate,,37.8%
OC[C@H]1O[C@@](CO)(OC[C@@]2(OC[C@@]3(OC[C@@]4(OC[C@@]5(OC[C@@]6(OC[C@@]7(O[C@H]8O[C@H](CO)[C@@H](O)[C@H](O)[C@H]8O)O[C@H](CO)[C@@H](O)[C@@H]7O)O[C@H](CO)[C@@H](O)[C@@H]6O)O[C@H](CO)[C@@H](O)[C@@H]5O)O[C@H](CO)[C@@H](O)[C@@H]4O)O[C@H](CO)[C@@H](O)[C@@H]3O)O[C@H](CO)[C@@H](O)[C@@H]2O)[C@@H](O)[C@@H]1O [Fructo-oligosaccharide DP8/GF7],229E Inhibition rate,,14.5%
CCCCC/C=C\C/C=C\C/C=C\C/C=C\CCCC(=O)O [Arachidonic acid],229E Inhibition rate,,11.1%
O=c1cc(-c2ccc(O)c(O)c2)oc2c([C@@H]3O[C@H](CO)[C@@H](O)[C@H](O)[C@H]3O)c(O)cc(O)c12 [Orientin],229E Inhibition rate,,55%
CC(=O)CCc1ccc(O[C@@H]2O[C@H](CO)[C@@H](O)[C@H](O)[C@H]2O)cc1 [Raspberry ketone glucoside],229E Inhibition rate,,19.3%
CC[C@H]1CN2CC[C@H]1C[C@H]2[C@H](O)c1ccnc2ccc(OC)cc12 [Hydroquinine],229E Inhibition rate,,0%
COc1cc(-c2cc(=O)c3c(O)c(OC)c(O)cc3o2)ccc1O [Jaceosidin],229E Inhibition rate,,25.6%
NC1CCN(c2nc3c(cc2F)c(=O)c(C(=O)O)cn3-c2ccc(F)cc2F)C1 (centres unmarked) [Tosufloxacin (tosylate hydrate)],229E Inhibition rate,,0%
CC(C)(O)[C@H]1Cc2cc3ccc(=O)oc3cc2O1 [Nodakenetin],229E Inhibition rate,,7.6%
O=c1cc(-c2ccccc2)oc2cccc(O)c12 [5-Hydroxyflavone],229E Inhibition rate,,10.5%
COc1cc2c(cc1O)CCN[C@]21CS[C@@H]2c3c(OC(C)=O)c(C)c4c(c3[C@H](COC1=O)N1[C@@H]2[C@H]2c3c(cc(C)c(OC)c3O)C[C@@H]([C@@H]1C#N)N2C)OCO4 [Ecteinascidin 770],229E Inhibition rate,,23.4%
CC(O)CN (centres unmarked) [1-Aminopropan-2-ol],229E Inhibition rate,,18.5%
NCCCCNCCCN [Spermidine (hydrochloride)],229E Inhibition rate,"229E Inhibition rate, 24 h",13.6%
"C[C@@H]1O[C@@H](O[C@@H]2[C@@H](O)[C@H](O)[C@@H](CO)O[C@H]2c2c(O)cc(O)c3c(=O)cc(-c4ccc(O)cc4)oc23)[C@H](O)[C@H](O)[C@H]1O [Vitexin-2""-O-rhamnoside]",229E Inhibition rate,,8.9%
COc1ccccc1C=O [2-Methoxybenzaldehyde],229E Inhibition rate,,9.8%
CC(=O)OC(C)C(C)C(=O)OC[C@@]12[C@H]3C[C@]4(C)C(=CC[C@@H]5[C@@]6(C)CC[C@H](O[C@@H]7O[C@H](C(=O)O)[C@@H](O[C@@H]8O[C@H](CO)[C@@H](O)[C@H](O)[C@H]8O)[C@H](O)[C@H]7O[C@@H]7OC[C@@H](O)[C@H](O)[C@H]7O)[C@@](C)(CO)[C@@H]6CC[C@]54C)[C@@H]1CC(C)(C)[C@H](O3)[C@@H]2O (some centres unmarked) [Sodium aescinate],229E Inhibition rate,,19.6%
OC[C@H]1O[C@H](OC[C@H]2O[C@H](OC[C@H]3O[C@H](OC[C@H]4OC(O)[C@H](O)[C@@H](O)[C@@H]4O)[C@H](O)[C@@H](O)[C@@H]3O)[C@H](O)[C@@H](O)[C@@H]2O)[C@H](O)[C@@H](O)[C@@H]1O (some centres unmarked) [Isomaltotetraose],229E Inhibition rate,,10%
CCCCCCCCCCCCC/C=C/[C@@H](O)[C@@H](N)CO [D-erythro-Sphingosine],229E Inhibition rate,,27.8%
CCCC[C@H](N)C(=O)O [L-Norleucine],229E Inhibition rate,,10.5%
O=C(O)[C@H]1O[C@@H](Oc2cc(O)c3c(=O)cc(-c4ccccc4)oc3c2)[C@H](O)[C@@H](O)[C@@H]1O [Chrysin-7-O-glucuronide],229E Inhibition rate,,17.8%
CCC(C)(O)C(=O)O (centres unmarked) [2-Hydroxy-2-methylbutanoic acid],229E Inhibition rate,,0%
COc1cc2c(cc1OC)C(Cc1ccc(O)cc1)N(C)CC2 (centres unmarked) [Armepavine],229E Inhibition rate,,8.9%
Nc1ccccc1C(=O)C[C@@H](N)C(=O)O [D-Kynurenine],229E Inhibition rate,,9.4%
O=c1c2c(O)cc(O)cc2oc2c(O)ccc(O[C@@H]3O[C@H](CO)[C@@H](O)[C@H](O)[C@H]3O)c12 [Norswertianolin],229E Inhibition rate,,6.1%
COc1cc(-c2cc(=O)c3c(O)cc(O)cc3o2)ccc1O [Chrysoeriol],229E Inhibition rate,,9.8%
O=C(O)CP(=O)(O)O [Phosphonoacetic acid],229E Inhibition rate,,13%
O=C(O[C@H](Cc1ccc(O)c(O)c1)C(=O)O)C1=Cc2cc(O)c(O)cc2[C@H](c2ccc(O)c(O)c2)[C@H]1C(=O)OC(Cc1ccc(O)c(O)c1)C(=O)O (stereo in doubt) [Rabdosiin],229E Inhibition rate,,40.7%
C[C@@H]1O[C@@H](O[C@H]2[C@H](OC(=O)[C@]34CCC(C)(C)C[C@H]3C3=CC[C@@H]5[C@@]6(C)C[C@H](O)[C@H](O[C@@H]7O[C@H](CO)[C@@H](O)[C@H](O)[C@H]7O)C(CO)(CO)[C@@H]6CC[C@@]5(C)[C@]3(C)C[C@H]4O)OC[C@H](O)[C@@H]2O)[C@H](O)[C@H](O)[C@H]1O[C@@H]1OC[C@@H](O)[C@H](O)[C@H]1O [Deapioplatycodin D],229E Inhibition rate,,36.2%
COc1cc2c(cc1OC)[C@@H](Cc1ccc(O)c(Oc3cc4c(cc3OC)CCN(C)[C@@H]4Cc3ccc(O)cc3)c1)N(C)CC2 [Liensinine],229E Inhibition rate,"229E Inhibition rate, 24 h",44.3%
Cc1cccc2c3c(ccc12)C(=O)C(C(C)CO)=C(O)C3=O (centres unmarked) [Danshenxinkun A],229E Inhibition rate,,8.5%
C=C[C@]1(C)CC[C@@H](C(=C)C)C[C@H]1C(=C)C [β-Elemene],229E Inhibition rate,,20.3%
COC(=O)[C@@]12OC[C@]34[C@H]([C@@H](O)[C@@H]1O)[C@@]1(C)CC(=O)C(O)=C(C)[C@@H]1C[C@H]3OC(=O)[C@H](OC(=O)/C=C(\C)C(C)C)[C@@H]24 [Bruceantin],229E Inhibition rate,,15.8%
CC(C)CC(=O)C(=O)O [4-Methyl-2-oxopentanoic acid],229E Inhibition rate,,8.6%
C/C1=C\CC(C)(C)/C=C/C(=O)/C(C)=C/CC1 [Zerumbone],229E Inhibition rate,,24.5%
C[C@]1(C(=O)O)CC[C@]2(C)CC[C@]3(C)C(=CC(=O)[C@@H]4[C@@]5(C)CC[C@H](O[C@@H]6O[C@H](C(=O)O)[C@@H](O)[C@H](O)[C@H]6O[C@@H]6O[C@H](C(=O)O)[C@@H](O)[C@H](O)[C@H]6O)[C@](C)(CO)[C@@H]5CC[C@]43C)[C@@H]2C1 [Licoricesaponin G2],229E Inhibition rate,,21.5%
CCCCCCCCCC(=O)O [Decanoic acid],229E Inhibition rate,,8.6%
"C1CSCSC1 [1,3-Dithiane]",229E Inhibition rate,,4.6%
Cc1cn([C@H]2C[C@H](O)[C@@H](CO)O2)c(=O)nc1N [5-Methyl-2'-deoxycytidine],229E Inhibition rate,,8.8%
C/C1=C\CC[C@]23O[C@H]2[C@@H](OC3=O)c2c(C)coc2C1 [Linderane],229E Inhibition rate,,13.6%
OCc1ccccc1O [Salicyl alcohol],229E Inhibition rate,,51.5%
Oc1cc(O)c2c(c1)O[C@H](c1cc(O)c(O)c(O)c1)[C@@H](O)C2 [(+)-Gallocatechin],229E Inhibition rate,,54.1%
OC[C@@H](O)[C@@H](O)[C@@H](O)CO [Ribitol],229E Inhibition rate,,13.2%
Nc1ncnc2c1ncn2[C@@H]1O[C@H](COP(=O)(O)O)[C@@H](O)[C@H]1O [Adenosine 5'-monophosphate monohydrate],229E Inhibition rate,"229E Inhibition rate, 24 h",14.6%
COc1ccc(C2COc3cc(O)ccc3C2)c(O)c1OC (centres unmarked) [Isomucronulatol],229E Inhibition rate,,9.8%
COc1c2ccoc2c(OCC(O)C(C)(C)O)c2oc(=O)ccc12 (racemic) [(Rac)-Byakangelicin],229E Inhibition rate,,7.9%
Oc1ccc2c(c1)OC[C@H]1c3cc4c(cc3O[C@@H]21)OCO4 [(-)-Maackiain],229E Inhibition rate,"229E Inhibition rate, 24 h",10.3%
"C[C@@H](O)[C@@H](C)O [(2R,3R)-Butane-2,3-diol]",229E Inhibition rate,"229E Inhibition rate, 24 h",7.5%
O=S(=O)(O)CCO [Isethionic acid sodium salt],229E Inhibition rate,,0%

# Pulled one by one from the entries so far:
structure (smiles),measurement,setting,value
OCc1ccccc1O [Salicyl alcohol],229E Inhibition rate,,51.5%
C[C@]1(Cn2ccnn2)[C@H](C(=O)O)N2C(=O)C[C@H]2S1(=O)=O [Tazobactam],229E Inhibition rate,,3.6%
O=S(=O)(O)CCO [Isethionic acid sodium salt],229E Inhibition rate,,0%
